Laboratory results from publication PMC8620495.
No constants are given. Whether binding was seen depends on the method and setting. Binding seen in cells or lysates may run through a third protein. Some results given as binding are weak or reduced against the parent protein; the word gives no strength.

By UniProt entry, the sequences of proteins in these tests, tags left out. Where a name states a change or a piece, a line headed by the entry shows the natural chain unless it says otherwise. Chains listed by the source or under a name are the forms on record and can include a tag or linker.
UniProt Q99683: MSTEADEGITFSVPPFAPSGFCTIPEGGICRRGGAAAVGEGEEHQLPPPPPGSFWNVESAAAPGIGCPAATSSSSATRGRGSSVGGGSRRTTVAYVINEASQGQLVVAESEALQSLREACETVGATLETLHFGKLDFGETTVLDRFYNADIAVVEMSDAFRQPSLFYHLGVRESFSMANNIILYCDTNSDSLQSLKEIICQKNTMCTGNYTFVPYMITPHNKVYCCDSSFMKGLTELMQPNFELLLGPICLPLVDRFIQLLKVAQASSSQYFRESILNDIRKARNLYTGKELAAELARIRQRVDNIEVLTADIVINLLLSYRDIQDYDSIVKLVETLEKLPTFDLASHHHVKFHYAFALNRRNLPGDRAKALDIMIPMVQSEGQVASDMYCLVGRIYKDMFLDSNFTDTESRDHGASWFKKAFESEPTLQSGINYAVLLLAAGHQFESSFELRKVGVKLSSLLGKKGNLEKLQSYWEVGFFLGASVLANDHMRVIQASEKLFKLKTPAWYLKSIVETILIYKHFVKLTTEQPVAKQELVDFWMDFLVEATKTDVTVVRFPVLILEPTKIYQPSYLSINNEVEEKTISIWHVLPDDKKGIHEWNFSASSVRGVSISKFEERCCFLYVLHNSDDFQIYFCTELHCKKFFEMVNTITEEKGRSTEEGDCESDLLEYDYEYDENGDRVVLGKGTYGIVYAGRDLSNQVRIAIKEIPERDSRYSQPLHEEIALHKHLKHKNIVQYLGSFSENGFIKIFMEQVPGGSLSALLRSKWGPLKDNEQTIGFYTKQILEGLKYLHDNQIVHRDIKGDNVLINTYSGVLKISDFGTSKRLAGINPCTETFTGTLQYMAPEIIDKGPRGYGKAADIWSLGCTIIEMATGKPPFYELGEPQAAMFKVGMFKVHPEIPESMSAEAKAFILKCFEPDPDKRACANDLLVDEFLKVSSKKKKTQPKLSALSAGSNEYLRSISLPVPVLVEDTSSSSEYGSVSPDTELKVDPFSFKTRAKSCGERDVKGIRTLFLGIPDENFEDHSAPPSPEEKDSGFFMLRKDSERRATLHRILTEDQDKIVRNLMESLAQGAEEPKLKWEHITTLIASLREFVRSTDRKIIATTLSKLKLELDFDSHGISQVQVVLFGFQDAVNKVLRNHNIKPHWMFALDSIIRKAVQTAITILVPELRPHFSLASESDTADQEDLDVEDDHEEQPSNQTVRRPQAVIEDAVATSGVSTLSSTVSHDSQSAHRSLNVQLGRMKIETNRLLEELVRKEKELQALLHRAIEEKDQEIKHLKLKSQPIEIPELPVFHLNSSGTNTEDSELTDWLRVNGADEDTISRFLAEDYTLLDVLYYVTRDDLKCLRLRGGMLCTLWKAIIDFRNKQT
HA-NEDD4 (P46934-4, form named): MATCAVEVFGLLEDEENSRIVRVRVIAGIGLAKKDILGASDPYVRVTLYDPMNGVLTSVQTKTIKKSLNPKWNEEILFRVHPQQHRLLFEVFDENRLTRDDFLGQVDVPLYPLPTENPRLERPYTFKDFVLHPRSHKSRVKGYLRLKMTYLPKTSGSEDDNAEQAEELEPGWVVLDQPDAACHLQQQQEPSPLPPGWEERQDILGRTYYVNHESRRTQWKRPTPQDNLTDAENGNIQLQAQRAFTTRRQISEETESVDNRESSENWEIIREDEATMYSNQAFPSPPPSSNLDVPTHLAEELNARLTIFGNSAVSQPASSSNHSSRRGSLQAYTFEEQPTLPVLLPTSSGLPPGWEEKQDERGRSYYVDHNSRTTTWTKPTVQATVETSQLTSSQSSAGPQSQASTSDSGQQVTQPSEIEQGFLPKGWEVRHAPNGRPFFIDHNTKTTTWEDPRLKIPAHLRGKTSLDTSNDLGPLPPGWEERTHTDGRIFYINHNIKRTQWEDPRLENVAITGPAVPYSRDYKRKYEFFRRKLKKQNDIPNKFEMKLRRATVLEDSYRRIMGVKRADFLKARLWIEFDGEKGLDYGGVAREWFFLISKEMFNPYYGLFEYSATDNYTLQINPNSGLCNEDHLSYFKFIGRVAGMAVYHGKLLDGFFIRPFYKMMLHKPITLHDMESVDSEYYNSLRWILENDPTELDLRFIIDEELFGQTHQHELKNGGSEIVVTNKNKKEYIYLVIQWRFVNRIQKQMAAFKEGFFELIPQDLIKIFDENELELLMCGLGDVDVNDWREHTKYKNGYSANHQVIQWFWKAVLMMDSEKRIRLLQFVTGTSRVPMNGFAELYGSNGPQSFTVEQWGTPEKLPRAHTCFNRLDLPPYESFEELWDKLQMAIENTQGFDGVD

Columns and labels:
Assay in all cases: co-IP; co-expressed in HEK293T cells; Myc-MEKK5 or mutants immunoprecipitated with anti-Myc antibody and protein A-Sepharose beads (4 °C, 3 h, four washes with lysis buffer); co-precipitated ligases detected by blot with anti-HA or anti-NEDD4
Myc-MEKK5-K709A = Myc-MEKK5-K709A (UniProt Q99683)
Myc-MEKK5 = Myc-MEKK5 (UniProt Q99683)
Myc-MEKK5-Y882A = Myc-MEKK5-Y882A (UniProt Q99683)

Measured: binding

HA-NEDD4 (from UniProt P46934-4 1-900)
binds: all assays above
